Some of the results follow.

For this test, the target named is T1, OsSMF1 (Oryza sativa, UniProt Q6ZLB0 1-436).
T1 sequence: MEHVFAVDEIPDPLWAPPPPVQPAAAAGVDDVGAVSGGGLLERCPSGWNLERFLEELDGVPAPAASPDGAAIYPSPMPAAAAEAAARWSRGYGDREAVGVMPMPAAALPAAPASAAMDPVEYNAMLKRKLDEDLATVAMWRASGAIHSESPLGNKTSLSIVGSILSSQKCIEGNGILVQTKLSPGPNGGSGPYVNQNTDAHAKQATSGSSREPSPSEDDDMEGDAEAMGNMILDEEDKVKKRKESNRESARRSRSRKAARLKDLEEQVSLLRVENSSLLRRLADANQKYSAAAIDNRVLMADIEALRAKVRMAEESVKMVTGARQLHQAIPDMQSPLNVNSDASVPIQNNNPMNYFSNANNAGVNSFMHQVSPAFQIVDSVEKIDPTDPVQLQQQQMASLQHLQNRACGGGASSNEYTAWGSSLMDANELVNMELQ
Put plainly: protein-binding microarray (RPBM); PBS, 2% BSA, 51.3 ng/ul salmon testes DNA, 50 uM zinc acetate, 200 nM TF, 25 C, 1 h; high values mean tight binding. The conditions noted are these: protein: recombinant; tags: N-terminal polyhistidine and DsRed monomer fusion (pET32a); chain copies: 2; label: CyDye5-dUTP incorporated in the synthesized complementary strand; 3' TTTTT single-stranded linker to array surface; dsDNA, one strand shown. The method, boiled down:
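Per-feature fluorescence intensity (arbitrary units), read on an Axon 4000B scanner, is the binding signal. Transcription factors carrying an N-terminal polyhistidine tag and DsRed fusion were expressed in E. coli BL21-CodonPlus and purified on Ni–NTA. A custom Agilent array, made double-stranded by primer extension with Cy5-dUTP and blocked with 2% BSA, was incubated with 200 nM protein in PBS, 2% BSA, salmon testes DNA and 50 µM zinc acetate at 25 °C for 1 h and then washed.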
With “AACGATGTTACTTACCAAGTGACAAGACGTGGACGTGTTGCGGAGTCACCTAGTGCAG”, the binding signal was 4550 fluorescence intensity (a.u.). For “GTAAAGTCACACGTGACACCGTGACAAGCACACCCTTCGCCGGAGTCACCTAGTGCAG” the value was 5030 fluorescence intensity (a.u.).

As for “AGCAGTAACCACGAAAGCGCTCGGCTCCACACGCCACGCACGGAGTCACCTAGTGCAG”, the binding signal was 3280 fluorescence intensity (a.u.). With “CCTATGAACAGTTATGACTCCGTCACAAAACAAATGTCACCGGAGTCACCTAGTGCAG” the figure was 4160 fluorescence intensity (a.u.); with “TAATAACAGTATTATAATAAGTTGGTCCAACTCATCTCTCCGGAGTCACCTAGTGCAG”, 4870 fluorescence intensity (a.u.); with “ATGACGATGATGGTGATGGAGTCGGGTACTGGTGATGGTACGGAGTCACCTAGTGCAG”, 3550 fluorescence intensity (a.u.). For “CACCGCGACGCACATACCCACCCGCCGGCCACGCACGAGACGGAGTCACCTAGTGCAG”, the binding signal was 4460 fluorescence intensity (a.u.). Take “GGCAGGCTTGCACACAGGTGCAAAGATACGTGTGGCAGACCGGAGTCACCTAGTGCAG”: the binding signal is 3240 fluorescence intensity (a.u.). Take “GGCCGTGCAAGCGCCACGTAGCTGCACAAACAAGGCCGTACGGAGTCACCTAGTGCAG”: the binding signal is 3820 fluorescence intensity (a.u.).

Take “CCCGATAAAGTCCACAATTTGCCATCAGCGGTAAGCGTGGCGGAGTCACCTAGTGCAG”: the binding signal is 3910 fluorescence intensity (a.u.). For “AATTTCTGTCACGGTGTCACTTCACATCAAATCATAAAACCGGAGTCACCTAGTGCAG”, the binding signal was 3430 fluorescence intensity (a.u.). For “GTGTGGCGCTGAACTTAGACACCTCAGCGCCAAATAGCGTCGGAGTCACCTAGTGCAG” the value was 4850 fluorescence intensity (a.u.); for “AAATGTTATCCACGTAAGAAAGGACTTTGTAGTCTGACTTCGGAGTCACCTAGTGCAG”, 6450 fluorescence intensity (a.u.); for “GCCGACGACGAAGCCGAGGTGGCGTGGCCGCATGGCGGTGCGGAGTCACCTAGTGCAG”, 4200 fluorescence intensity (a.u.).

Consider “AGTGAAGTCACAAGGAAGTGACGAGGATGAGGACGAGGAGCGGAGTCACCTAGTGCAG”, for which the binding signal is 28700 fluorescence intensity (a.u.).

“ACGGACCTTTGTAGGGTAAGTGTGCGTGTAGATATAAGTGCGGAGTCACCTAGTGCAG”: the binding signal was 3310 fluorescence intensity (a.u.). Take “TAAATGACCTGGATTCGTAACCTCACCCCTTCTAATTATTCGGAGTCACCTAGTGCAG”: the binding signal is 4070 fluorescence intensity (a.u.). For “ACTCTCACCATATACCCAGTGCCGTCAGGAGGATGTTGAACGGAGTCACCTAGTGCAG” the value was 4050 fluorescence intensity (a.u.); for “AATTTAATCGCGATAGATTGGTTTAACTCTAATCCGGGAGCGGAGTCACCTAGTGCAG”, 3450 fluorescence intensity (a.u.); for “AAGCAGCCGCGGTGGCCGTGTACCGCGCAACTCCACGCTACGGAGTCACCTAGTGCAG”, 3180 fluorescence intensity (a.u.).

With “GTAGCTTGGTTAATAATAATTGTACACAACTTGGTCGTAACGGAGTCACCTAGTGCAG”, the binding signal was 3320 fluorescence intensity (a.u.). For “TTAATGTCCTAAGTTTAGTGGTGGAGTCATACATCTATCTCGGAGTCACCTAGTGCAG” the value was 4540 fluorescence intensity (a.u.).

Regarding “CATCATCATCTCTTCTCCTCTCTCTCTCTCTTTCCTTTTCCGGAGTCACCTAGTGCAG”, the binding signal was 8580 fluorescence intensity (a.u.). For “GTGCCAGCTGGATATCCTCCATCCGCCGCCCCACGTCCCCCGGAGTCACCTAGTGCAG” the value was 4580 fluorescence intensity (a.u.); for “GAATCCTTTTGGTGGTTTAAGAACGGTCAGCAAGTAGGTTCGGAGTCACCTAGTGCAG”, 4060 fluorescence intensity (a.u.); for “AAAACGACTATCGTTGACGAGACATCCACGTGGTAGTCCACGGAGTCACCTAGTGCAG”, 4520 fluorescence intensity (a.u.). Take “ATATCATGCCCAGATATTAAACTAAAATTATATTAGATACCGGAGTCACCTAGTGCAG”: the binding signal was 4080 fluorescence intensity (a.u.). For “GAAGCAACCGCATGTATCCCTTCCCACCACATCCTTGATCCGGAGTCACCTAGTGCAG” the value was 3170 fluorescence intensity (a.u.).

With “CCCTCTATTCAGACATATCTCACCCAACTTACTGAACGCCCGGAGTCACCTAGTGCAG”, the binding signal is 7260 fluorescence intensity (a.u.). With “TGTGATACCCTATATAATAACCGATGTGACACGATAAAATCGGAGTCACCTAGTGCAG” the figure was 3590 fluorescence intensity (a.u.). For the sequence “CCTGTTGATTGGATATCTGGAACCTGAAATCCTGAATACGCGGAGTCACCTAGTGCAG”, the binding signal was 21300 fluorescence intensity (a.u.). Consider “GGTGATCACTAGGCTGTCAATGGGGTGGTAGGGTGGCATGCGGAGTCACCTAGTGCAG”, for which the binding signal was 3250 fluorescence intensity (a.u.). Turning to “CACTACTTGCTGTCTTGCTGCCGCCACGCTGCTCCTCCCCCGGAGTCACCTAGTGCAG”, the binding signal is 22900 fluorescence intensity (a.u.). With “GATATGTGGGCCCACGTGGAATAAAATAAATGTGTGATGCCGGAGTCACCTAGTGCAG” the figure was 4700 fluorescence intensity (a.u.); with “ATAACAGAATGGATGACGTAAGCTGCACACGCGGCACTAGCGGAGTCACCTAGTGCAG”, 8280 fluorescence intensity (a.u.). With “ACGCGCGTCGCACGCCACGCGGCACCATTTCGCTTCGCCTCGGAGTCACCTAGTGCAG” the figure was 9140 fluorescence intensity (a.u.). For “CTGGGGAGCGGGTGGGCTGTCTGCATTGTTTAGCCCATGACGGAGTCACCTAGTGCAG” the value was 3510 fluorescence intensity (a.u.); for “TCTCACGTACACCTCCGGTTTCTGATTCTTGCTTCGTGTGCGGAGTCACCTAGTGCAG”, 3280 fluorescence intensity (a.u.). As to “TCGATCGTTGGTTAGCGCGTACGTACGTCTTGGTCATTTGCGGAGTCACCTAGTGCAG”, the binding signal is 3670 fluorescence intensity (a.u.). For the sequence “GCCACGTAGGTGCCATGTGGCACCACGTCAGCAAAATTGCCGGAGTCACCTAGTGCAG”, the binding signal was 49100 fluorescence intensity (a.u.). With “AATTGCGCTCTCTGGATCTTCTTCTCCGTCTCCTCCCCGGCGGAGTCACCTAGTGCAG” the figure was 3160 fluorescence intensity (a.u.); with “CACAAACCAATGGGCATCGCATTGTGCGCGTCATTGTACACGGAGTCACCTAGTGCAG”, 3500 fluorescence intensity (a.u.); with “TCTCCCTGAGTCCAAGCCGCTCCTCCCTGACGCCTATGCCCGGAGTCACCTAGTGCAG”, 3510 fluorescence intensity (a.u.). For “TCTCTCTCTCTCTCTCTCTCTTCTGACTTAGCTTTGTCAACGGAGTCACCTAGTGCAG” the value was 3700 fluorescence intensity (a.u.); for “CTCGTCCCTCGTCAGCGTCCTCCCCGCCTTCGTCTCGCCGCGGAGTCACCTAGTGCAG”, 8650 fluorescence intensity (a.u.); for “TTTGTAGTTAAATTTATACGCTAGAAATGCCTTATATTTGCGGAGTCACCTAGTGCAG”, 3290 fluorescence intensity (a.u.). With “CACAGAGTGAGGGATTAAGGAAGAAGAAGAGGTTGATTGACGGAGTCACCTAGTGCAG” the figure was 31900 fluorescence intensity (a.u.); with “GGAGCCGAACGAGCCTCGTCACGCGGTTCTCCAGCGCAGCCGGAGTCACCTAGTGCAG”, 6090 fluorescence intensity (a.u.). Turning to “CGGTCTCTTTCCACCACGGTGCCCGTGTCCGTCCGAGCGCCGGAGTCACCTAGTGCAG”, the binding signal is 3160 fluorescence intensity (a.u.). For “AATTGATTATCCGAGAAGCAATGAGCAGAACGTTCATGTACGGAGTCACCTAGTGCAG” the value was 11000 fluorescence intensity (a.u.). With “ACGTGTCGAGCACAGGAACACGTGTCACTTCAGTTCTTCCCGGAGTCACCTAGTGCAG”, the binding signal was 19500 fluorescence intensity (a.u.). For “TTACAAGGTTATAACATAGTTAATTATTTAGGTATACAATCGGAGTCACCTAGTGCAG” the value was 26900 fluorescence intensity (a.u.). With “GCGAGCGGTATTGCTGATGTGGCATCCGACGTAGAAGGTTCGGAGTCACCTAGTGCAG” the figure was 15500 fluorescence intensity (a.u.).

For the sequence “GCTACAACTAGCACTCCTAACCTGACACGATAGTTTTGGGCGGAGTCACCTAGTGCAG”, the binding signal was 3280 fluorescence intensity (a.u.).
